Data taken from PubChem BioAssay AID588497 (NMMLSC, 2011).
Among all 360,000 compounds or so, about 780 (0.22%) were called active. This list was built around the results that the source calls inconclusive (neither active nor inactive); the mix of calls is not that of the screen. Cut-off read from the data, not from the text of the source: active = inhibition above about 35% (passing the limit was not always enough); inconclusive = no clear call, values can overlap the other calls.

Test system: Botulinum neurotoxin type F light chain protease (Clostridium botulinum)
Experiment: BoNT/F light chain protease inhibitors, primary screen, biochemical, flow cytometry, MLPCN library (AID 588497); note: plate controls were buffer without enzyme for full effect and enzyme alone for no effect
Conditions: Multiplex microsphere protease cleavage assay, at 10 µM, stronger effect = higher value

SMILES	inhibition
Cc1nnc(SCC(=O)Nc2nc(-c3ccccc3)cs2)n1N	inactive: -0.7%
O=C1NN(c2cccc(Br)c2)C(=O)/C1=C/c1ccc(-c2cc([N+](=O)[O-])ccc2O)o1	inactive: -3.6%
CCOC(=O)CCCNC(=O)c1cncc(Br)c1	inconclusive: -65.3%
O=C1C(Cl)=C(NCCN2CCOCC2)C(=O)c2ccccc21	inconclusive: -15.5%
CC1CN(CCOc2ccccc2C(C)C)CC(C)O1 (stereo unspecified)	inconclusive: 31.4%
CCOC(=O)N1CCN(CCC(=O)Nc2ccc(OC(F)(F)F)cc2)CC1	inconclusive: 21.8%
O[C@@H]1CN(Cc2ccccc2Cl)CC[C@H]1N1CCOCC1	inactive: -15.7%
Cc1nnsc1-c1c(C(=O)N2CCOCC2)c(C)nn1-c1ccccc1	inconclusive: 23.2%
CCc1ccccc1NC(=O)C(Cc1ccccc1)c1nn[nH]n1 (stereo unspecified)	inconclusive: 46.7%
Cc1nc2nc(SCc3ccccc3)[nH]n2c(=O)c1CCC(C)C	inconclusive: -35.7%
CCn1c(S(=O)(=O)O)nc2ccccc21	inactive: 1.9%
N#Cc1c(Nc2ccccc2C(F)(F)F)s[nH]c1=O	inconclusive: 16.3%
C=CCOC(=O)C1=C(C)NC(=O)NC1c1cc2c(cc1Br)OCO2 (stereo unspecified)	inconclusive: 4.3%
CC(=O)Nc1cc(NC(C)=O)c(N=Nc2ccccc2)cc1C	inconclusive: 171%
COc1ccc(C2=CSC3=NCCN23)cc1Cl	inconclusive: -17.3%
CC(C)(C)OC(=O)N1CCC(C(=O)Nc2ccc(C(=O)N3CCOCC3)cc2)CC1	inactive: -6.1%
CCCCC#Cc1cncc(C(=O)NN)c1	inconclusive: 7.4%
Cc1nc(C(=O)NNC(=O)c2ccc(Cl)cc2)c(C(F)(F)F)o1	inconclusive: -7.9%
O=S(=O)(c1ccc(F)cc1)N1CCN(c2ccc(F)cc2)CC1	inconclusive: -1.4%
Cn1nc(C(C)(C)C)cc1NC(=O)C1(C)CCN1C(=O)Cc1ccc(-c2ccccc2)cc1 (stereo unspecified)	inactive: -3.1%
Cc1nc2n[nH]c(N)c2c2c1COC(C)(C)C2	inactive: -4.3%
O=C(O)Cc1ccc(C(=O)CSc2ccccc2)s1	inconclusive: 5.9%
COc1ccccc1C(=O)NCCNc1nc2cc(C)cc(C)c2cc1C#N	inactive: 16%
Cc1cc(C(F)(F)F)nn1CCCNC(=O)c1cnccn1	inactive: -0.4%
FC(F)(F)c1ccc(Cl)c(-n2c(-c3cc(C4CC4)[nH]n3)n[nH]c2=S)c1	inconclusive: 19%
CCC1=NN2C(=N)/C(=C/c3cc(C)n(-c4ccccc4)c3C)C(=O)N=C2S1	inconclusive: -46.5%

Among those listed so far, these contain an NH in an aromatic ring:
SMILES	inhibition
CCc1ccccc1NC(=O)C(Cc1ccccc1)c1nn[nH]n1 (stereo unspecified)	inconclusive: 46.7%
Cc1nc2nc(SCc3ccccc3)[nH]n2c(=O)c1CCC(C)C	inconclusive: -35.7%
N#Cc1c(Nc2ccccc2C(F)(F)F)s[nH]c1=O	inconclusive: 16.3%
Cc1nc2n[nH]c(N)c2c2c1COC(C)(C)C2	inactive: -4.3%
FC(F)(F)c1ccc(Cl)c(-n2c(-c3cc(C4CC4)[nH]n3)n[nH]c2=S)c1	inconclusive: 19%
